The target in experiment [1] is High-mobility group box 1 (HMGB1), endogenous human (human (endogenous in Huh7, L02, HepG2.2.15, 293T cells and patients' liver)) (UniProt P09429). The experiment in a line: co-IP; liver samples from HBV patients, compared with controls.
Experiment [2] shares this target. Nature of the experiment: co-IP.
In experiment [3] the target is HMGB1, endogenous mouse (mouse (endogenous in mouse liver)) (UniProt P63158). Nature of the experiment: co-IP; liver samples from HBx-transgenic mice, compared with controls.

Chains of the proteins cited; added tags and fusions are not shown.
UniProt P09429: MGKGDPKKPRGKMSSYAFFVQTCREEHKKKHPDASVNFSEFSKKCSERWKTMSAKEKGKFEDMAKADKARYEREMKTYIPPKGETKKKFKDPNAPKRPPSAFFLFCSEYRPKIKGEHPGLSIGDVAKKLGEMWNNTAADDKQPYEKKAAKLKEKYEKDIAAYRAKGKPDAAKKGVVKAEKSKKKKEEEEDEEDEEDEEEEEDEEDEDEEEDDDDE
UniProt P63158: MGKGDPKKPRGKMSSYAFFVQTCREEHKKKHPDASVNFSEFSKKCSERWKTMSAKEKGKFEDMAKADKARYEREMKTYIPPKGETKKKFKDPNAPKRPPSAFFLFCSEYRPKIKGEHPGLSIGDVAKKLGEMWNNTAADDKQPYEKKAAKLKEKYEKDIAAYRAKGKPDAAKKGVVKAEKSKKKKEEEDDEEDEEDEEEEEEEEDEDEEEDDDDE
UniProt Q14457: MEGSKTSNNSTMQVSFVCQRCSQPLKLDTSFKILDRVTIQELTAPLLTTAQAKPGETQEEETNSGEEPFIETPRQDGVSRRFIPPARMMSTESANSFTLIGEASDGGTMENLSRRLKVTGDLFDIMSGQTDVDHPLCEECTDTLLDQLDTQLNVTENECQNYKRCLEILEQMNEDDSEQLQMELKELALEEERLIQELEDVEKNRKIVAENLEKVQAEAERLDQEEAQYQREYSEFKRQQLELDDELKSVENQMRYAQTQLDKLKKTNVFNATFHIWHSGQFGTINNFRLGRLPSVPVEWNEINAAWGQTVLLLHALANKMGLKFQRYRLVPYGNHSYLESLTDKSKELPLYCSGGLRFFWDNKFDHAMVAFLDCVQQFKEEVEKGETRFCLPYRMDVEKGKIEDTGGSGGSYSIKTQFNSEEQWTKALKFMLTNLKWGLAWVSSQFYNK
UniProt O88597: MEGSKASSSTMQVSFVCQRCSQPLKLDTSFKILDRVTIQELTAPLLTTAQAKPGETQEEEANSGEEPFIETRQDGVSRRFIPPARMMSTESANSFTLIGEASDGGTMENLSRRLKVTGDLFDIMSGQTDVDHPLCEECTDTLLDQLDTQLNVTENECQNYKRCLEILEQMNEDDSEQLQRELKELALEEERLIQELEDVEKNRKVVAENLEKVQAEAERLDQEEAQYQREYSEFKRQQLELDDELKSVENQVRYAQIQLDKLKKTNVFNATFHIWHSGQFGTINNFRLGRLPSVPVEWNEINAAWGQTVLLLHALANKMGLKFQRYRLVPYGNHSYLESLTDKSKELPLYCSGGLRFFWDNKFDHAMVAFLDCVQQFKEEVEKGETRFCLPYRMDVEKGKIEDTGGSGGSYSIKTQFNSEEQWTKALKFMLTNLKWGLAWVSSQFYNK

These are yes or no findings as the source states them, for the method shown. In cells and extracts the contact can be indirect. Some results given as binding are weak or reduced against the parent protein; the word gives no strength.

Regarding “Beclin1, endogenous human (from UniProt Q14457 1-450)”, the binding result in experiment [1] and in experiment [2] was “binds” in each case.

Consider “Beclin1, endogenous mouse (from UniProt O88597 1-448)”, for which the binding result in experiment [3] is given as “binds”.

For the origin of these results see publication PMC5830655.
